Laboratory results: PubChem BioAssay AID1159600 (NIAID, 2016)
Purpose: 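How human macrophage-like cells depend on pathway genes for TLR7/8 agonist response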 (primary screen). System: human THP-1 TNF reporter clone B5, made macrophage-like with PMA. Knock-down reagent: single siRNA against human genes. Timing: 4 h ligand stimulation, assayed 48 to 72 h after siRNA transfection. Conditions: R848 (TLR7/8 agonist) for 4 hours before lysis; dose not given. Measurement: 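Robust z-score of firefly over renilla TNF promoter signal after 4 h R848, plate median/MAD normalised, relative to negative controls, averaged across replicates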. Scale: TNF reporter z-score: higher = stronger TNF promoter reporter signal after R848. Rule for the call: 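Active where mean z-score is about 1.5 or more from zero in either direction; depositor grades use cut-offs of 1, 1.5, 2 and 2.5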. Meaning of the calls: active = strong change in TNF reporter (up or down); inactive = little change.
The whole screen tested 756 reagents; this is a random part of them. In the full data, 134 (18%) got an active call. 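Active includes both reduced and increased reporter signal, though most active siRNAs reduce it; R848 dose unknown.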 A number with no mark means an inactive call. The numbers tell different reagents against one gene apart. Not given: the amount of reagent.

PIK3R5 (phosphoinositide-3-kinase regulatory subunit 5) #1
- TNF reporter z-score: -0.427

PIK3R5 (phosphoinositide-3-kinase regulatory subunit 5) #2
- TNF reporter z-score: -0.0411

PIK3R5 (phosphoinositide-3-kinase regulatory subunit 5) #3
- TNF reporter z-score: 0.737

PIK3R5 (phosphoinositide-3-kinase regulatory subunit 5) #4
- TNF reporter z-score: -0.0483

PIK3R5 (phosphoinositide-3-kinase regulatory subunit 5) #5
- TNF reporter z-score: -0.194

PIK3R5 (phosphoinositide-3-kinase regulatory subunit 5) #6
- TNF reporter z-score: 0.406

IRAK2 (interleukin 1 receptor associated kinase 2) #1
- TNF reporter z-score: -0.807

IRAK2 (interleukin 1 receptor associated kinase 2) #2
- TNF reporter z-score: 1.82 (active)

IRAK2 (interleukin 1 receptor associated kinase 2) #3
- TNF reporter z-score: -0.491

IRAK2 (interleukin 1 receptor associated kinase 2) #4
- TNF reporter z-score: -0.48

IRAK2 (interleukin 1 receptor associated kinase 2) #5
- TNF reporter z-score: 0.442

IRAK2 (interleukin 1 receptor associated kinase 2) #6
- TNF reporter z-score: 0.85

Reformatted: entries from further up.
Target gene | siRNA no. | TNF reporter z-score
PIK3R5 (phosphoinositide-3-kinase regulatory subunit 5) | 6 | 0.406
IRAK2 (interleukin 1 receptor associated kinase 2) | 1 | -0.807
IRAK2 (interleukin 1 receptor associated kinase 2) | 2 | 1.82 (active)

The results go on.
TANK (TRAF family member associated NFKB activator) #1
- TNF reporter z-score: 0.795

TANK (TRAF family member associated NFKB activator) #2
- TNF reporter z-score: -0.117

TANK (TRAF family member associated NFKB activator) #3
- TNF reporter z-score: 0.063

TANK (TRAF family member associated NFKB activator) #4
- TNF reporter z-score: 0.0594

TANK (TRAF family member associated NFKB activator) #5
- TNF reporter z-score: -1.39

TANK (TRAF family member associated NFKB activator) #6
- TNF reporter z-score: 1.03

TAB3 (TGF-beta activated kinase 1 (MAP3K7) binding protein 3) #1
- TNF reporter z-score: -0.616

TAB3 (TGF-beta activated kinase 1 (MAP3K7) binding protein 3) #2
- TNF reporter z-score: -0.455

TAB3 (TGF-beta activated kinase 1 (MAP3K7) binding protein 3) #3
- TNF reporter z-score: -0.76

TAB3 (TGF-beta activated kinase 1 (MAP3K7) binding protein 3) #4
- TNF reporter z-score: 0.54

TAB3 (TGF-beta activated kinase 1 (MAP3K7) binding protein 3) #5
- TNF reporter z-score: 0.889

TAB3 (TGF-beta activated kinase 1 (MAP3K7) binding protein 3) #6
- TNF reporter z-score: -0.276
